Measurements taken from patent publication US20210032312A1.
Changes are numbered by the printed parent chain. Names and notes keep the numbering of the source. Results are given in words; binding and its absence hold for the method and conditions named. Some binding calls cover weakened binding; strength is not graded here.

Chains of the proteins cited; added tags and fusions are not shown. Lines headed by an entry give the natural chain unless they say otherwise; changes in a name come on top. A line that says so, or that is headed by a name, gives the form on record, which may keep a tag or linker. Residues count along the entry.
UniProt P01732: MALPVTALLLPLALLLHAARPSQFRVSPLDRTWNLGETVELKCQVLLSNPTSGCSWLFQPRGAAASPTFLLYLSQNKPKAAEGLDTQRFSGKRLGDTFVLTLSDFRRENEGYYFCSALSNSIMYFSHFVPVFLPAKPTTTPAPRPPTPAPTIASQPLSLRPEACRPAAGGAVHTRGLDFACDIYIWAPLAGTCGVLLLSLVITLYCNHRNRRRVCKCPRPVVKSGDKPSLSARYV
human CD8A on cells: residues 22-235 of P01732
recombinant human CD8 alpha fused to Fc fragment of human IgG1: residues 22-182 of P01732

B1: CD8S368 (designed binder)
chain: LPAPKNLVVSRVTEDSARLSWTAPDAAFDSFQIAYPEWPPPGEAIVLTVPGSCRSYDLTGLKPGTEYFVIIQGVKGGVESWPLSAIFTT
B2: CD8S403 (designed binder)
chain: B1 chain with Q32A, P36A, P41Q, C53E, I70V, Q72Y, V78S, E79Y, W81A
B3: CD8S390 (designed binder)
chain: LPAPKNLVVSRVTEDSARLSWTAPDAAFDSFGILYYEPVDSGEAITLPVPGSERSYDLTGLKPGTEYYVVITGVKGGAPSTPLGTIFTT
B4: CD8S402 (designed binder)
chain: LPAPKNLVVSRVTEDSARLSWTAPDAAFDSFWITYPEWPPPGGEAIVLTVPGSERSYDLTGLKPGTEYFVVIYGVKGGEIYSPLSAIFTT
B5: CD8S368-DFO (designed binder)
chain: B1 chain
modifications: Deferoxamine (DFO) conjugated to the free cysteine of E54C
B6: CD8S367-DFO (designed binder)
chain: B1 chain with Q32A, P41Q, I70V, Q72Y, V78S, E79Y, W81A
modifications: Deferoxamine (DFO) conjugated to the free cysteine of E54C
B7: CD8S365-DFO (designed binder)
chain: B3 chain with E53C, Y68W
modifications: Deferoxamine (DFO) conjugated to the free cysteine of E54C
B8: CD8S370-DFO (designed binder)
chain: LPAPKNLVVSRVTEDSARLSWTAPDAAFDSFAITYIEKEHIEDGEAIVLTVPGSCRSYDLTGLKPGTEYWVPIWGVKGGANSWPLSAIFTT
modifications: Deferoxamine (DFO) conjugated to the free cysteine of E54C
B9: CD8S369-DFO (designed binder)
chain: LPAPKNLVVSRVTEDSARLSWAKRPGAFDSFLIQYQESEKVGEAIVLTVPGSCRSYDLTGLKPGTEYTVSIYGVDVKYDIDSRPISSNPLSAIFTT
modifications: Deferoxamine (DFO) conjugated to the free cysteine of E54C
B10: CD8S366-DFO (designed binder)
chain: B4 chain with P40D, E54C
modifications: Deferoxamine (DFO) conjugated to the free cysteine of E54C
B11: P283BR9P1363_C8 (designed binder)
chain: LPAPKNLVVSRVTEDSARLSWAKTSDLHPLFDSFLIQYQESEKVGEAIVLTVPGSERSYDLTGLKPGTEYTVSIYGVDVKWEGNRPVASNPLSAIFTT
B12: P283BR9P1363_E4 (designed binder)
chain: B11 chain with A22I, T24S, S25E, D26T, L27S, H28Q, L30A
B13: P283BR9P1363_D11 (designed binder)
chain: LPAPKNLVVSRVTEDSARLSWNKKHDGQPTFDSFLIQYQESEKVGEAIVLTVPGSERSYDLTGLKPGTEYTVSIYGVDVVYEGSYPASSNPLSAIFTT

Each binder was assayed against human CD8A on cells (human) (UniProt P01732) (assay: MSD-CAT equilibrium cell-binding assay, primary human cytotoxic T cells).

Row | Binder | binding
1 | B1 | binds

These binders were tested against recombinant human CD8 alpha fused to Fc fragment of human IgG1 (human) (UniProt P01732) (assay: SPR dissociation rate on recombinant CD8 alpha).

Row | binding | Binder
2 | binds | B2
3 | binds | B3
4 | binds | B4

Each binder was assayed against recombinant human CD8 alpha fused to Fc fragment of human IgG1 (human) (UniProt P01732) (assay: SPR on recombinant human CD8 alpha).

Row | binding | Binder
5 | binds | B5
6 | binds | B6
7 | binds | B7
8 | binds | B8
9 | binds | B9
10 | binds | B10

Each binder was assayed against recombinant human CD8 alpha fused to Fc fragment of human IgG1 (human) (UniProt P01732) (assay: ELISA, biotinylated CD8W7 or CD8W13).

Row | binding | Binder
11 | binds | B11
12 | binds | B12
13 | binds | B13
